{
  "source": "paper PMC3930751",
  "binders": {"B1": {"name": "Vitamin D receptor ligand binding domain prey hybrid (pCMVAD-VDRLBD) (domain or fragment, UniProt P11473 96-427)", "chain": "TDEEVQRKREMILKRKEEEALKDSLRPKLSEEQQRIIAILLDAHHKTYDPTYSDFCQFRPPVRVNDGGGSHPSRPNSRHTPSFSGDSSSSCSDHCITSSDMMDSSSFSNLDLSEEDSDDPSVTLELSQLSMLPHLADLVSYSIQKVIGFAKMIPGFRDLTSEDQIVLLKSSAIEVIMLRSNESFTMDDMSWTCGNQDYKYRVSDVTKAGHSLELIEPLIKFQVGLKKLNLHEEEHVLLMAICIVSPDRPGVQDAALIEAIQDRLSNTLQTYIRCRHPPPGSHLLYAKMIQKLADLRSLNEEHSKQYRCLSFQPECSMKLTPLVLEVFGNEIS"}},
  "key": {"[1]": {"target": "T1, Gal4 DNA binding domain-SENP1 hybrid (pCMVBD-SENP1), sentrin/SUMO-specific protease 1 (human) (UniProt Q9P0U3)", "T1 sequence": "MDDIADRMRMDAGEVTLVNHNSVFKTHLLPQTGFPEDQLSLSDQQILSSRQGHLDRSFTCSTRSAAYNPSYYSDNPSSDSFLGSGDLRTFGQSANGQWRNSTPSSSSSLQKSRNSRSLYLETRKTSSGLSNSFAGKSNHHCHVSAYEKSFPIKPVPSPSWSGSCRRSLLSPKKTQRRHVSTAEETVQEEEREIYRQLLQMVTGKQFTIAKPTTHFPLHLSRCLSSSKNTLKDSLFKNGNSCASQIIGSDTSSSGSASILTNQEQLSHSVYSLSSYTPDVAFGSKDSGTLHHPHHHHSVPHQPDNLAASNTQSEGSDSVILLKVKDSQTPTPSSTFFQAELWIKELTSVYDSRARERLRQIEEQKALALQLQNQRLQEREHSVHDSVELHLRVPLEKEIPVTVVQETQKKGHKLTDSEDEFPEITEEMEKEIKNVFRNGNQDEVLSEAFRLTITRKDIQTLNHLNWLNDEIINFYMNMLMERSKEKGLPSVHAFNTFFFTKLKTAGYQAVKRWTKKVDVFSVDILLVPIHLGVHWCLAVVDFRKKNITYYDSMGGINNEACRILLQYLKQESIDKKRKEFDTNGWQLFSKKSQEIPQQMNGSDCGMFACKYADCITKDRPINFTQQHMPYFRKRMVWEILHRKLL", "assay": "two-hybrid; mammalian two-hybrid in CHO-K1 cells; bait pCMVBD-SENP1 or 2, prey pCMVAD-VDRLBD, Gal4 luciferase reporter with pRL-TK control; cells incubated with 1,25D (10^-8 M) for 24 hours"}, "[2]": {"target": "T2, Gal4 DNA binding domain-SENP2 hybrid (pCMVBD-SENP2), sentrin/SUMO-specific protease 2 (human) (UniProt Q9HC62)", "T2 sequence": "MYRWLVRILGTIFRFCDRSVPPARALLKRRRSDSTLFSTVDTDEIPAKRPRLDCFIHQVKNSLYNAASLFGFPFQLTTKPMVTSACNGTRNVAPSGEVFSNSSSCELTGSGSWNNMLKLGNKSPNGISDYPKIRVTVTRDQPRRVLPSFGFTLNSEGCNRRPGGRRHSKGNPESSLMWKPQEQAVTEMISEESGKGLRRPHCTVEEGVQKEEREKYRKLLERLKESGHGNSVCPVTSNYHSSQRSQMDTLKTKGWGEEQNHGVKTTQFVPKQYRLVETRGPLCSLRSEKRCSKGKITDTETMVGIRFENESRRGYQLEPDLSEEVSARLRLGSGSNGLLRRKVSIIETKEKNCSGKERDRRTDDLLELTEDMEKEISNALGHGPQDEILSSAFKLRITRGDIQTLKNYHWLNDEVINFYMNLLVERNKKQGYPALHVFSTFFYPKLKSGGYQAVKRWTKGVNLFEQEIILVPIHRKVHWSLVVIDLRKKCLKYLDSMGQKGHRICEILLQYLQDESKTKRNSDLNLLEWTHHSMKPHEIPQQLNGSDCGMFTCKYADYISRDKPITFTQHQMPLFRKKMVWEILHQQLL", "assay": "two-hybrid; mammalian two-hybrid in CHO-K1 cells; bait pCMVBD-SENP1 or 2, prey pCMVAD-VDRLBD, Gal4 luciferase reporter with pRL-TK control; cells incubated with 1,25D (10^-8 M) for 24 hours"}},
  "note": "These are yes or no findings as the source states them, for the method shown. Some entries that bind do so weakly or less than the wild type.",
  "data": [
    {"binder": "B1", "values": [
      {"measurement": "binding", "setting": "[1]", "result": "binds"},
      {"measurement": "binding", "setting": "[2]", "result": "binds"}
    ]}
  ]
}
